Chains of the proteins cited; added tags and fusions are not shown. Lines headed by an entry give the natural chain unless they say otherwise; changes in a name come on top. Residues count along the entry.
UniProt O22476, residues 24-1196: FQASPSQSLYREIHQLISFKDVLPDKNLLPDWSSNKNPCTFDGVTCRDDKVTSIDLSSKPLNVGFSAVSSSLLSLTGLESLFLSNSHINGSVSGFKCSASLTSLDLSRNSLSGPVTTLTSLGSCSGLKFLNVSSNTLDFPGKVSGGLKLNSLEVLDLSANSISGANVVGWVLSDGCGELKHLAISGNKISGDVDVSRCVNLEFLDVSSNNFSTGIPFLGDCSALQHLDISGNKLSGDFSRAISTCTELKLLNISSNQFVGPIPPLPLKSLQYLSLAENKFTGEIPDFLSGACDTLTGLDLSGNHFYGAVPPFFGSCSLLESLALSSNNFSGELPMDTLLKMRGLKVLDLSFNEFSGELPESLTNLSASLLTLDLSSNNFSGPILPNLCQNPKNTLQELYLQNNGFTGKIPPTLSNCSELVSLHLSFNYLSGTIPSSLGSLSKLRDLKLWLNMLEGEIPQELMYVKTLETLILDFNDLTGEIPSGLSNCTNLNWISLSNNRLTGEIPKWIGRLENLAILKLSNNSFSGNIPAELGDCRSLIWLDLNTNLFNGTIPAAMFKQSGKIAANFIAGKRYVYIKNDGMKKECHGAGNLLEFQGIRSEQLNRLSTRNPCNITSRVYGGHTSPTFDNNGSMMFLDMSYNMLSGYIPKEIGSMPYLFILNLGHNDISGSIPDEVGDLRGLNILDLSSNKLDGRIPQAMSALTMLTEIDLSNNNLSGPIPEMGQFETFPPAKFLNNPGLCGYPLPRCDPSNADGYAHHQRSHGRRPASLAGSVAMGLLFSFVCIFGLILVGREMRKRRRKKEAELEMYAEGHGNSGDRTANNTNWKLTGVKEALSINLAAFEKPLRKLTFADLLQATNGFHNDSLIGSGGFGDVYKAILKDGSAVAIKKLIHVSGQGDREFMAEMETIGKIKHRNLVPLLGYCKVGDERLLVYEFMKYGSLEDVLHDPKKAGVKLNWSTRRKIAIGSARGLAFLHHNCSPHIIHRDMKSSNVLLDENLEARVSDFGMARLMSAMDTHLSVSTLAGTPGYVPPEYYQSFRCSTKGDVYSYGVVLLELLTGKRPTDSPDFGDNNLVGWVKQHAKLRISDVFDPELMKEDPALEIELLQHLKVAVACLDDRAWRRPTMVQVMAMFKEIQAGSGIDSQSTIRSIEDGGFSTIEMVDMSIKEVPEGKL
UniProt Q7DZ57: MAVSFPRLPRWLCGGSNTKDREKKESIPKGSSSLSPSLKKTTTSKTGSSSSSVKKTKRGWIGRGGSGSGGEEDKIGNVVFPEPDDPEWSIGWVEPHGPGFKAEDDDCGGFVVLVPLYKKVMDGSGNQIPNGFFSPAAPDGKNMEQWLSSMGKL

According to paper PMC3679059:

Experiments:
[1] = target: T1, BAM2-GFP (full-length) (Arabidopsis) (UniProt Q9M2Z1); assay: co-IP; proteins co-expressed in N. benthamiana; soluble membrane fraction after depletion of detergent-resistant membranes (DRM); IP of the GFP fusion, CCI1-FLAG detected
T1 sequence: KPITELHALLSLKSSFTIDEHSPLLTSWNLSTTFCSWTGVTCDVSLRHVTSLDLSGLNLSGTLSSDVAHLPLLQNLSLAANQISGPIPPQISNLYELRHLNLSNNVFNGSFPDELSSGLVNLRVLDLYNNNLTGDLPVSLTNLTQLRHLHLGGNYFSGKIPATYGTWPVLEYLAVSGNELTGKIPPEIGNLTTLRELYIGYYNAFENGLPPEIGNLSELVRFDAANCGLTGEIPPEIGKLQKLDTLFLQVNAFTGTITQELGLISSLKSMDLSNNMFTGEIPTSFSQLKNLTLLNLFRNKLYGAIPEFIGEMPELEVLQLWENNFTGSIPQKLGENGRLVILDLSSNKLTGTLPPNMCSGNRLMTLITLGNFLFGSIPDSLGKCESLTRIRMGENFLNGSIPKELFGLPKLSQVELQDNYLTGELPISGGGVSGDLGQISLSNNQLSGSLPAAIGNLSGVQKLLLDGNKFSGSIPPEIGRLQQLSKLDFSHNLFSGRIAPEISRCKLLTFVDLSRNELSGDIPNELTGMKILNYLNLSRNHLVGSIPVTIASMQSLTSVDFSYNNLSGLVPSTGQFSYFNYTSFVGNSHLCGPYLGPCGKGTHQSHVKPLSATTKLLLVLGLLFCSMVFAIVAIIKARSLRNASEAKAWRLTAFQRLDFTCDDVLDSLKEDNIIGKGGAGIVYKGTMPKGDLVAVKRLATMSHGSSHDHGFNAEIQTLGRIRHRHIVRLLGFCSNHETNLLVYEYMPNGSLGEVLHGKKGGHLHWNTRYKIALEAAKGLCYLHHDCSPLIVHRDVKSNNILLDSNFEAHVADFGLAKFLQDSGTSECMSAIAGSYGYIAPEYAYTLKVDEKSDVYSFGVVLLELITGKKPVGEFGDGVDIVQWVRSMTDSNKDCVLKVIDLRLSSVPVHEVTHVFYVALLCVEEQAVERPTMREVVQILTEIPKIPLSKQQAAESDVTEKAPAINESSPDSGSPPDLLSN

[2] = target: T2, BAM1-GFP (full-length) (Arabidopsis) (UniProt O49545); assay: co-IP; proteins co-expressed in the same N. benthamiana leaves; total membrane fraction solubilised with 1% triton X-100; IP with anti-GFP and protein A agarose at 4°C, blot with anti-FLAG
T2 sequence: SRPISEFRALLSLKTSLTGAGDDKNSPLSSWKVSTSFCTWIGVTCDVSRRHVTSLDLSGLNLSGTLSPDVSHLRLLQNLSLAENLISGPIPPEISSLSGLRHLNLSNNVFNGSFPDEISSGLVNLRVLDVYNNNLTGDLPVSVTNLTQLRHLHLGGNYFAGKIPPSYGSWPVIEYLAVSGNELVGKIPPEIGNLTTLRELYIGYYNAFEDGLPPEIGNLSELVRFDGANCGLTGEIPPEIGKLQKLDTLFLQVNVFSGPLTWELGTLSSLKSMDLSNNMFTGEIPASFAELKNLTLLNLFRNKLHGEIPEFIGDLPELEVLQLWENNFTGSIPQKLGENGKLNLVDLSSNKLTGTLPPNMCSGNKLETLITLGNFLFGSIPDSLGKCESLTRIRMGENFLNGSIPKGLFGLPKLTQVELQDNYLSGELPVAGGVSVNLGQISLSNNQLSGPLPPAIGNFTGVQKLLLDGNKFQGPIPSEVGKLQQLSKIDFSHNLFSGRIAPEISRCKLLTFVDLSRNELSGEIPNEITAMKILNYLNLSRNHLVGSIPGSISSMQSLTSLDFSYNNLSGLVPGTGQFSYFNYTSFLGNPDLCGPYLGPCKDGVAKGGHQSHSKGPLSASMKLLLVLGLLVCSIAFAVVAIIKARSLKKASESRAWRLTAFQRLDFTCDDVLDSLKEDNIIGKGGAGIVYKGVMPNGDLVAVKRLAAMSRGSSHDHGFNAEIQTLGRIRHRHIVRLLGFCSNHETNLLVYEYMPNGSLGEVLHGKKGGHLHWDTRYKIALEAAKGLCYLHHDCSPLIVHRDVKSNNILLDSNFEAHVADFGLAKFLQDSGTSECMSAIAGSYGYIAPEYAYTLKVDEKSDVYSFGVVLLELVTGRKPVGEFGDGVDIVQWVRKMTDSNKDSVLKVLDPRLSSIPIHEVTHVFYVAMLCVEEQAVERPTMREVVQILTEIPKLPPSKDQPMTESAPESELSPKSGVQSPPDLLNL

[3] = target: T1, BAM2-GFP (full-length) (Arabidopsis); assay: as above
BRI1-GFP (full-length) = BRI1-GFP (full-length) (UniProt O22476); assay: as above
[4] = target: T3, CLV2-GFP (full-length) (Arabidopsis) (UniProt O80809); assay: as above
T3 sequence: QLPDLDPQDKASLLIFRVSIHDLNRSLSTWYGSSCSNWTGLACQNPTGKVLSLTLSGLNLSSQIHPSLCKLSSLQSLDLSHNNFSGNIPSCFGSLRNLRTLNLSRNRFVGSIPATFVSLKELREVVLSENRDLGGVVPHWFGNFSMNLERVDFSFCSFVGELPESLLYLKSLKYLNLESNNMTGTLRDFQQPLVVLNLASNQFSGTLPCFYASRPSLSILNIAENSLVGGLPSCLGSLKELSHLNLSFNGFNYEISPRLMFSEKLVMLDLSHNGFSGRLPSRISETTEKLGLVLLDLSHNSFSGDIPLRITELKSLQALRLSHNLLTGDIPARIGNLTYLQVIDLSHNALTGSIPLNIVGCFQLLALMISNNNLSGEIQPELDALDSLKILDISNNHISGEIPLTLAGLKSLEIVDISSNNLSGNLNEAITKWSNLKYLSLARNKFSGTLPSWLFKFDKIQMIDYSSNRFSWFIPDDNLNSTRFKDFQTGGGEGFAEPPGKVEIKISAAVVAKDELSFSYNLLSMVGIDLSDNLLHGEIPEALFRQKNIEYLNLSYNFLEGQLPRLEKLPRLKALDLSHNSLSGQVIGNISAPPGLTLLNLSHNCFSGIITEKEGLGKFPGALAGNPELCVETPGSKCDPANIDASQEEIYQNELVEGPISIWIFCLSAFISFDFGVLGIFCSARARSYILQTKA

Measured: binding

CCI1-FLAG (from UniProt Q7DZ57)
binds: all assays above

No constants are given. Whether binding was seen depends on the method and setting. In cells and extracts the contact can be indirect. A result given as binding can be weak or reduced; the word gives no strength. For some assays here: Where a sequence is shown, tags or fusion partners need not be part of it.
